Measurements as given in paper PMC3184153.
Construct, isoform or probe ends are uncertain for at least one entry.

By UniProt entry, the sequences of proteins in these tests, tags left out. Where a name states a change or a piece, a line headed by the entry shows the natural chain unless it says otherwise.
UniProt Q7AKN0: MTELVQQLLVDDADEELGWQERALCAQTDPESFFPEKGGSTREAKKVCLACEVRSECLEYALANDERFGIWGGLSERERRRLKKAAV

Biological target: apo-WhiB (Streptomyces coelicolor) (UniProt Q7AKN0)
Experiment: EMSA
Conditions: apo form (no Fe-S cluster), 0-9 uM WhiB, 20 ng DNA; Invitrogen fluorescence EMSA kit, BSA as non-specific competitor, room temperature 30 min, 6% polyacrylamide gel in 0.5x TBE; protein stock in 50 mM Tris, 100 mM NaCl; recombinant protein; residues 1-87; protein details: His6 (pET15b, pIJ6999); probe letters rebuilt from the primers and the genome

TAGATATCCCATGCTCGGTGAGACCGACGACGAGGGCCGTCCGGTCGCGTACAACCGCGTCGCCGGTGTCCTGGTCACCGGGAACGAGGACGGTGCCCACCACGTCATCAGCGAGATCGGCGGCGGCCTCGCGGACATCGGCTACACCATTCCCGGCCAGGCCTGGACCTACTGGCACCTCGGCCCGGGACCCGGTCCGGACTTCCTCGACGACGAGCGCGGCCACGACTGGTCGGTCTCCACCGGCCGCGCCATGGCGTCCAATCTGGTGCACGCGGCGCGCGCCCTCGACGCGATGCCGCTCCCGGCCCCGCCGTCCTGATCCCGGACCTGCCCGCGCATGTCTGCCTGAGCCGATACGGGGCATTCGTGCACGAGCAATGACGTACGAAACGCATGAGGAGCTGAGGTCCCATATGTA (double strand) [dpsA promoter region]
binding result: binds
